The values that follow come from patent US4880781 (dated 1989).

Square brackets hold non-standard residues; d marks the D form. * marks the point of attachment. Sta = CC(C)C[C@H](N)[C@@H](O)CC(=O)O; Boc = CC(C)(C)OC(=O)*

The first series can be described thus: general procedure: Boc solid-phase peptide synthesis; p-methylbenzhydrylamine resin; DCC/HOBT; BOP for Boc-His(Tos). The settings on record: coupling step.
The substance “N-tert-Butyloxycarbonyl-L-prolyl-L-phenylalanyl-N^α -methyl-N^im -tosyl-L-histidyl-5S-amino-4S-hydroxy-2S-isopropyl-7-methyl-octanoyl-L-iso leucyl-2-pyridylmethylamide” yielded a step yield of 69%.
Turning to L-Phenyllactyl-His-Sta-Ile-AMP, the step yield is reported as 55%.
Same read-out and setting: in the case of “N-tert-Butyloxycarbonyl-α-methyl-L-prolyl-L-phenylalanyl-N^in -tosyl-L-histidyl-5S-amino-4S-hydroxy-2S-isopropyl-7-methyl-octanoyl-L-iso leucyl-2-pyridylmethylamide” it was 82%; in that of “N-tert-Butyloxycarbonyl-L-phenylalanyl-N^α -methyl-N^im -tosyl-L-histidyl-5S-amino-4S-hydroxy-2S-isopropyl-7-methyl-octanoyl-L-iso leucyl-2-pyridylmethylamide”, 64%; in that of “O-tert-butylacetyl-L-phenyllactyl-His-Sta-Ile-AMP”, 24%.
The substance O-acetyl-L-phenyllactyl-His-Sta-Ile-AMP had a step yield of 58%.
With “N-tert-Butyloxycarbonyl-Nα-methyl-N^im -tosyl-L-histidyl-5S-amino-2S-isopropyl-7-methyl-4S-tert-butyldimethylsily loxy-octanoyl-L-isoleucyl-2-pyridylmethylamide”, the step yield came to 84%.
Still for that read-out and setting: in the case of Boc-His-(Tos)-Sta-Ile-Phe-OCH3 it was 93%; in that of “O-acetyl-L-phenyllactyl-His-Sta-Ile-Phe-OCH3”, 73%; in that of “N-tert-Butyloxycarbonyl-N^in -tosyl-L-histidyl-5S-amino-2S-isopropyl-7-methyl-4S-tert-butyldimethylsily loxy-octanoyl-L-isoleucyl-2-pyridylmethylamide”, 84%.

Still in this series, the particulars now being: late stage modification step.
In the case of “N-tert-Butyloxycarbonyl-L-prolyl-L-phenylalanyl-N^α -methyl-L-histidyl-5S-amino-4S-hydroxy-2S-isopropyl-7-methyl-octanoyl-L-is oleucyl-2-pyridylmethylamide”, the step yield worked out at 90%.
The substance Boc-H[Sta]IF-OMe returned a step yield of 89%.
With “N-tert-Butyloxycarbonyl-α-methyl-L-prolyl-L-phenylalanyl-L-histidyl-5 S-amino-4S-hydroxy-2S-isopropyl-7-methyl-octanoyl-L-isoleucyl-2-pyridylmet hylamide”, the step yield stood at 91%.
“N-tert-Butyloxycarbonyl-L-phenylalanyl-N^α -methyl-L-histidyl-5S-amino-4S-hydroxy-2S-isopropyl-7-methyl-octanoyl-L-is oleucyl-2-pyridylmethylamide” had a step yield of 94%.

Still in this series, the particulars now being: late stage modification step, λ 225.
On to Boc-PEP-His(Tos)LVA-Ile-AMP, for which the “final HPLC purity” value is recorded as 100%.
